Laboratory results taken from the supplement of paper PMC12819154, “High-throughput peptide-centric local stability assay extends protein–ligand identification to membrane proteins, tissues and bacteria” (Nature Structural & Molecular Biology, 2025).
The other results are listed elsewhere or left out. Small differences around the control level are noise.

By UniProt entry, the sequences of proteins in these tests, tags left out. Where a name states a change or a piece, a line headed by the entry shows the natural chain unless it says otherwise.
UniProt Q91VR5: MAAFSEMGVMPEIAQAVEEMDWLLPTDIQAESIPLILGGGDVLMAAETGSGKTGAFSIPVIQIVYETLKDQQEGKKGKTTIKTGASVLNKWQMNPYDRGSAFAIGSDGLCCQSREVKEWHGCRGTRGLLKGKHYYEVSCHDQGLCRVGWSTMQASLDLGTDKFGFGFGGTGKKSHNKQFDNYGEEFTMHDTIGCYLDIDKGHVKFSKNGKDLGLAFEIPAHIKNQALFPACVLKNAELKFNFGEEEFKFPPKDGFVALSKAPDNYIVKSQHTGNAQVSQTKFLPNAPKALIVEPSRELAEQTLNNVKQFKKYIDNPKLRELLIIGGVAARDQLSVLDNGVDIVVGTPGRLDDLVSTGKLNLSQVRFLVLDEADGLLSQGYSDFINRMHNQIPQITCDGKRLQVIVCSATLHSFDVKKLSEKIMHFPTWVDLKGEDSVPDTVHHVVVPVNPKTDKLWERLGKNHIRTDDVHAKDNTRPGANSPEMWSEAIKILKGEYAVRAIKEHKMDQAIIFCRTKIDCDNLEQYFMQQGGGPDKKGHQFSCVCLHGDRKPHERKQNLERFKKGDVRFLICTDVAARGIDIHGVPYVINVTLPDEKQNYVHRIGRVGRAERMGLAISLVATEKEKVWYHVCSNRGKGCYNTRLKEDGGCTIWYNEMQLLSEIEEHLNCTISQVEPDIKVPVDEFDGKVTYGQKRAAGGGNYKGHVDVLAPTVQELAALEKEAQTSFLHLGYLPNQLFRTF
UniProt Q91WG3: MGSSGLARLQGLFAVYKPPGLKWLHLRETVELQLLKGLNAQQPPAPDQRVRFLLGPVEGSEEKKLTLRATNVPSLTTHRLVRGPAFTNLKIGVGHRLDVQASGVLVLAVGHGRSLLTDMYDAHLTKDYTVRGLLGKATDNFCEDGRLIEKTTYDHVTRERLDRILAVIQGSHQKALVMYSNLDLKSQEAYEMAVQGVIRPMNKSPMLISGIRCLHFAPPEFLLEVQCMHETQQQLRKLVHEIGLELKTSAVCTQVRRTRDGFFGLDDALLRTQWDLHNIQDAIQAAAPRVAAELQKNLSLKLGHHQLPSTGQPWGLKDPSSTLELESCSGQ
UniProt Q91ZF0: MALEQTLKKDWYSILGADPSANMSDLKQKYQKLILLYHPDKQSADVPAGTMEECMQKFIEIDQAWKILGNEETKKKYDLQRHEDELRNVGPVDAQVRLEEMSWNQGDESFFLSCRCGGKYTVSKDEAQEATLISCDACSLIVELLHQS
UniProt Q91WM6: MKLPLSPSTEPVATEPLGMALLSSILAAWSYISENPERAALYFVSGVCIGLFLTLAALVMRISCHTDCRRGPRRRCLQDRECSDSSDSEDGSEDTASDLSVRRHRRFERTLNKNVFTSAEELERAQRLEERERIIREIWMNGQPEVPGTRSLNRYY
UniProt Q91V80: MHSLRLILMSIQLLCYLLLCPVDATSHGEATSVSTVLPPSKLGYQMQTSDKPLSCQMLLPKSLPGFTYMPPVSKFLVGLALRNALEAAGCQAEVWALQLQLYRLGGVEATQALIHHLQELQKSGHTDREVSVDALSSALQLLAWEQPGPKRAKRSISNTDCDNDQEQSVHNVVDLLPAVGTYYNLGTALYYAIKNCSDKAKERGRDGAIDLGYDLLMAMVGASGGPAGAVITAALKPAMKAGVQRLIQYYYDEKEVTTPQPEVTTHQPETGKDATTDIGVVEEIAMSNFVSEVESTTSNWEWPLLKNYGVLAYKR
UniProt Q91W36: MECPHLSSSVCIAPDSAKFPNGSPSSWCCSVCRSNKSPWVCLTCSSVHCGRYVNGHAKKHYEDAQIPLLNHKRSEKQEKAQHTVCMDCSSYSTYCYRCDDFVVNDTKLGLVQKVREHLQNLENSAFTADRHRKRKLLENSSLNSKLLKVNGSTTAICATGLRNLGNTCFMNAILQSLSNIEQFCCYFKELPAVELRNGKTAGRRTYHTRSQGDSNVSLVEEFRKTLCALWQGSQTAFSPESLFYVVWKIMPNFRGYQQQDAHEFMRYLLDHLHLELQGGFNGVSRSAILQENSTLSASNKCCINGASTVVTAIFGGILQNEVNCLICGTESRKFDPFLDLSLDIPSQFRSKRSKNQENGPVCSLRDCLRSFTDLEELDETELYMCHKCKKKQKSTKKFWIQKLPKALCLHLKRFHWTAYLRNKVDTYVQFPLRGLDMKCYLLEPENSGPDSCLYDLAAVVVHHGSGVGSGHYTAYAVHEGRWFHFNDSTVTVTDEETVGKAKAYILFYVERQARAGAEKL
UniProt Q91VR8: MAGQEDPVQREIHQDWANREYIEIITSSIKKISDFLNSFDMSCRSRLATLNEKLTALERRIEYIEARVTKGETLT
UniProt Q91Y57: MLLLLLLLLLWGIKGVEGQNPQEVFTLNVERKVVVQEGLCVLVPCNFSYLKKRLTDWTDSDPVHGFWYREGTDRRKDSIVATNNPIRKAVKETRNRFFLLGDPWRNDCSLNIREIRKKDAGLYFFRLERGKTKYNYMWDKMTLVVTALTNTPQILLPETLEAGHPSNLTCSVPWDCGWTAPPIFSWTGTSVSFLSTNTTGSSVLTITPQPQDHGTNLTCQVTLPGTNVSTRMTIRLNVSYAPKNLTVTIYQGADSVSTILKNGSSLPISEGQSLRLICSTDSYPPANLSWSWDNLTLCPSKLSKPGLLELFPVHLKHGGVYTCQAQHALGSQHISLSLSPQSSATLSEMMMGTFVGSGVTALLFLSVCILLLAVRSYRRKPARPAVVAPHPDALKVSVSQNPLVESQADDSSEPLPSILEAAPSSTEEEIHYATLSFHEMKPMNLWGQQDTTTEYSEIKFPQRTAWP
UniProt Q8VHP6: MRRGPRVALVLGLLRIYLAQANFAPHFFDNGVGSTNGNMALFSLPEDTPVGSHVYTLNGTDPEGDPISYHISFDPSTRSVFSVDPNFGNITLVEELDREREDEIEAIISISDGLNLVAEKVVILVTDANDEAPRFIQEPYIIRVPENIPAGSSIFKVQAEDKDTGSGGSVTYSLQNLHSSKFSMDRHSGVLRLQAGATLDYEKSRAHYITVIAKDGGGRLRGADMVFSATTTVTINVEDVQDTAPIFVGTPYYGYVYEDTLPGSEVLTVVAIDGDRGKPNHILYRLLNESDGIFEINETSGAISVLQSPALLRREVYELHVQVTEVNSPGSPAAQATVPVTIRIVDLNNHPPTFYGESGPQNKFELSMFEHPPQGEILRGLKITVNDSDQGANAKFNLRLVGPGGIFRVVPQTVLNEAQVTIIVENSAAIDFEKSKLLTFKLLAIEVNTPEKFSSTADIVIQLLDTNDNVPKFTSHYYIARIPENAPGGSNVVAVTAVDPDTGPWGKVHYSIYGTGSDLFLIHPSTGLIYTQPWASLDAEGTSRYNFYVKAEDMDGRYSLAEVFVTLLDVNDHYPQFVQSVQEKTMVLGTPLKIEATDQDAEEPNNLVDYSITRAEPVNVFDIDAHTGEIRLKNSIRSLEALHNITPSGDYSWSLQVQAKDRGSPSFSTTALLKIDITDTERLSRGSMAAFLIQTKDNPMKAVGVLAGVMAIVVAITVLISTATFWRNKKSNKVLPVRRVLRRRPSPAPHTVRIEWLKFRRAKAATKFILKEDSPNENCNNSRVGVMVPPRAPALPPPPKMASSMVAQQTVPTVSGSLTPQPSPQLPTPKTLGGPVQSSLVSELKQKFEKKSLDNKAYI
UniProt Q91X91: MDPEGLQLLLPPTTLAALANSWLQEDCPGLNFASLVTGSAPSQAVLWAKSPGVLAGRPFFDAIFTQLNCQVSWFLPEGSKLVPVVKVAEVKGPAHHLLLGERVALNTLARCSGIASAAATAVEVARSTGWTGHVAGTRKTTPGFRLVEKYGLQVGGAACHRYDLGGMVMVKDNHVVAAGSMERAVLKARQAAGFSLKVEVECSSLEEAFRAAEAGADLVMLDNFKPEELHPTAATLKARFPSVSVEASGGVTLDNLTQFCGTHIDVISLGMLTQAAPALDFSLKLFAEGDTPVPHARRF
UniProt Q91YT2: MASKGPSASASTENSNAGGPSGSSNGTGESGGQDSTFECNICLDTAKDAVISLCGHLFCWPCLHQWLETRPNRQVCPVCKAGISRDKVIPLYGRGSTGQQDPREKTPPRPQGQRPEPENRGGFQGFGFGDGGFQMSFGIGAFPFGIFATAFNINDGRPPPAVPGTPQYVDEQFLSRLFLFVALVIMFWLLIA
UniProt Q91YU8: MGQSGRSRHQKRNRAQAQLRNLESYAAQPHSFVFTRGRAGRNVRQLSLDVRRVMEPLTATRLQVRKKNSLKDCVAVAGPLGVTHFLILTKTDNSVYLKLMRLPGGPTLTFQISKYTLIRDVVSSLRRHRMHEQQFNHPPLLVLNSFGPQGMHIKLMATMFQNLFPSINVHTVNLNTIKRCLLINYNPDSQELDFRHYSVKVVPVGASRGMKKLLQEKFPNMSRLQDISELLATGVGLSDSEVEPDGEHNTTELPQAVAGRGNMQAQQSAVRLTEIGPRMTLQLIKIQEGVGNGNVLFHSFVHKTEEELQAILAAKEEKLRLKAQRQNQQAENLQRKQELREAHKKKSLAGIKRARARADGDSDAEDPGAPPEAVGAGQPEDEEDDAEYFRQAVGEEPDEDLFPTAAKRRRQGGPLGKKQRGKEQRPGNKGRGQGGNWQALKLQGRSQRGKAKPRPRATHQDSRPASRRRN
UniProt Q91YT8: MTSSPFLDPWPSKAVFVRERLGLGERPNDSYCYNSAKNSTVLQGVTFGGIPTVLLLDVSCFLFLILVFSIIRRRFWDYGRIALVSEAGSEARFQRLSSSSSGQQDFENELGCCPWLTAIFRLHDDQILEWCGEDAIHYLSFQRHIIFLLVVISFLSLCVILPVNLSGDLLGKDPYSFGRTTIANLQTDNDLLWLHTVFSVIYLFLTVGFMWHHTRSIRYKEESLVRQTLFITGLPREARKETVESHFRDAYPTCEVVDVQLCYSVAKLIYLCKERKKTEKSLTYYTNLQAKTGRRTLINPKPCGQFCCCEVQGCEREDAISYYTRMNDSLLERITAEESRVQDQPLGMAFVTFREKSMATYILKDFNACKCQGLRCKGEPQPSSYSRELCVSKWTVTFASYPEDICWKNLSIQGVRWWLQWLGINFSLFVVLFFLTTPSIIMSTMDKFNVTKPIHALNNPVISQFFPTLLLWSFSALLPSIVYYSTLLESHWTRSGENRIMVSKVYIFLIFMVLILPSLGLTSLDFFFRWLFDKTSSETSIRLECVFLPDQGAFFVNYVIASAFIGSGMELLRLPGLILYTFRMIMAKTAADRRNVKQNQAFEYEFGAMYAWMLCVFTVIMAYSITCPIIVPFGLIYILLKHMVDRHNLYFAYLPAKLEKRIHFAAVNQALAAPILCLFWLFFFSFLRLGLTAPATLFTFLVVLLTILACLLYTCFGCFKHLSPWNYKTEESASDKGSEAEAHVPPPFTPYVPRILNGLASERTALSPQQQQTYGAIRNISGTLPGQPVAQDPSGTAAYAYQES
UniProt Q91WU2: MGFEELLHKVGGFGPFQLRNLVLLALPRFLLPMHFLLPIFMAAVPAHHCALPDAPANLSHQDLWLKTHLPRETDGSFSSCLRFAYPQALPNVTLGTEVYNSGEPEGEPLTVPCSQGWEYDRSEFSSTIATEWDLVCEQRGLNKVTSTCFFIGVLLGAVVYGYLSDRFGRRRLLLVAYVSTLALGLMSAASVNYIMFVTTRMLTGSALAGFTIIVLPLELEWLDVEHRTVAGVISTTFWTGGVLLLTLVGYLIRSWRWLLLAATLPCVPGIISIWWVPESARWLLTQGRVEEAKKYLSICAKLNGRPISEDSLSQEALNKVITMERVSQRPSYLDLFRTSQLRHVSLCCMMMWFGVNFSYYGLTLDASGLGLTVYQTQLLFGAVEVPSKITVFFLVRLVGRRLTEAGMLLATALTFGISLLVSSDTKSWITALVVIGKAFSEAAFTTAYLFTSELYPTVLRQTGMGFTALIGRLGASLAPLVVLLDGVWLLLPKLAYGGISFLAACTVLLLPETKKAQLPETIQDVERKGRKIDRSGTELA
UniProt Q91X78: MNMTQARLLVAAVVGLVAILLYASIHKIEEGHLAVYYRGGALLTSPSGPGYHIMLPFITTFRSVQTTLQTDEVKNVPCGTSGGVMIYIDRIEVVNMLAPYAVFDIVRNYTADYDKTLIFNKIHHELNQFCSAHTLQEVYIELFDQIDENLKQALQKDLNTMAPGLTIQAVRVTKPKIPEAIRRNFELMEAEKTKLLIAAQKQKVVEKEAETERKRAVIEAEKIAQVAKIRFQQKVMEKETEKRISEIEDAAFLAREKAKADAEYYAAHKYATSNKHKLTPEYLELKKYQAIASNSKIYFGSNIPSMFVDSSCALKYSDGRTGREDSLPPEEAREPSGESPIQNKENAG
UniProt Q91VT4: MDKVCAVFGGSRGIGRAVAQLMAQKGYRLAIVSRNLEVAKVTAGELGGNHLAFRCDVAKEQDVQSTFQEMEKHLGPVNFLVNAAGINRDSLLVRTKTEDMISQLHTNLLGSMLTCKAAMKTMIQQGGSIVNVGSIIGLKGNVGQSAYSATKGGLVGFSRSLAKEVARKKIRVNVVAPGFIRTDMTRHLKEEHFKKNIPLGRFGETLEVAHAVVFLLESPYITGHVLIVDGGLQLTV

Compound: CN[C@@H]1C[C@H]2O[C@@](C)([C@@H]1OC)n1c3ccccc3c3c4c(c5c6ccccc6n2c5c31)C(=O)NC4 [staurosporine]
Assay: log2 fold change of tryptic peptide abundance, ligand vs vehicle (limited proteolysis) (log2 ratio); higher = more trypsin-susceptible (destabilized)
Settings: ligand concentration: 20 uM; sample: mouse liver crude lysate; replicate design: treated separately

Target: UniProt Q91VR2 (peptide sequence: HLIIGVSSDR, peptide start residue: 91)
- log2 fold change: 0.156

Target: UniProt Q91VR5 (peptide sequence: GKHYYEVSCHDQGLCR, peptide start residue: 131)
- log2 fold change: -0.609

Target: UniProt Q91W92 (peptide sequence: DRDRDPDHSQDR, peptide start residue: 176)
- log2 fold change: -0.26

Target: UniProt Q91WS7 (peptide sequence: RHNDCFVGSEAVDVIYSHLTQNK, peptide start residue: 61)
- log2 fold change: -0.471

Target: UniProt Q91WG3 (peptide sequence: ATNVPSLTTHR, peptide start residue: 69)
- log2 fold change: 0.229

Target: UniProt Q8WTY4 (peptide sequence: RPDPASLK, peptide start residue: 224)
- log2 fold change: 0.149

Target: UniProt Q91ZF0 (peptide sequence: NVGPVDAQVR, peptide start residue: 88)
- log2 fold change: 0.225

Target: UniProt Q91WJ8 (peptide sequence: SPPPNADPNMK, peptide start residue: 411)
- log2 fold change: 0.555

Target: UniProt Q91WM1 (peptide sequence: YSWSVTDKEGAGSSALK, peptide start residue: 340)
- log2 fold change: -0.145

Target: UniProt Q91WM6 (peptide sequence: NVFTSAEELER, peptide start residue: 114)
- log2 fold change: -0.175

Target: UniProt Q91V80 (peptide sequence: LGGVEATQALIHHLQELQK, peptide start residue: 104)
- log2 fold change: 0.105

Target: UniProt Q91VS7 (peptide sequence: ITNKVFANPEDCAGFGKGENAK, peptide start residue: 39)
- log2 fold change: -1.28

Target: UniProt Q91VT1 (peptide sequence: MSDLIPDEALR, peptide start residue: 222)
- log2 fold change: 0.374

Target: UniProt Q91W36 (peptide sequence: FHWTAYLR, peptide start residue: 414)
- log2 fold change: 0.229

Target: UniProt Q91VR8 (peptide sequence: KISDFLNSFDMSCR, peptide start residue: 31)
- log2 fold change: -0.187

Target: UniProt Q8VHQ9 (peptide sequence: ALATFVAHR, peptide start residue: 147)
- log2 fold change: 0.194

Target: UniProt Q91XD4 (peptide sequence: RLIPPFHAASAQLTSLVDADAR, peptide start residue: 393)
- log2 fold change: 0.193

Target: UniProt Q91V92 (peptide sequence: EILIPVFK, peptide start residue: 537)
- log2 fold change: -0.237

Target: UniProt Q91WK1 (peptide sequence: WHSMLANEK, peptide start residue: 131)
- log2 fold change: 0.295

Target: UniProt Q91VL8 (peptide sequence: KFGAQNVAR, peptide start residue: 378)
- log2 fold change: -0.297

Target: UniProt Q91VZ6 (peptide sequence: LNEQHQLILSK, peptide start residue: 13)
- log2 fold change: -0.2

Target: UniProt Q91Y57 (peptide sequence: LTDWTDSDPVHGFWYR, peptide start residue: 54)
- log2 fold change: 0.193

Target: UniProt Q8VHP6 (peptide sequence: PNHILYR, peptide start residue: 279)
- log2 fold change: 0.00859

Target: UniProt Q8VIG0 (peptide sequence: NHVDLEAGLR, peptide start residue: 177)
- log2 fold change: 0.149

Target: UniProt Q91Z67 (peptide sequence: VLNELYSVMK, peptide start residue: 156)
- log2 fold change: 0.259

Target: UniProt Q91X91 (peptide sequence: VAEVKGPAHHLLLGER, peptide start residue: 87)
- log2 fold change: -0.339

Target: UniProt Q91W50 (peptide sequence: EIFFHYSEFK, peptide start residue: 208)
- log2 fold change: -0.878

Target: UniProt Q91ZP6 (peptide sequence: AAALAAAAADAPQR, peptide start residue: 169)
- log2 fold change: 0.371

Target: UniProt Q91YT2 (peptide sequence: DKVIPLYGR, peptide start residue: 86)
- log2 fold change: -0.0731

Target: UniProt Q91V12 (peptide sequence: MIEEAGAIISTR, peptide start residue: 80)
- log2 fold change: 0.154

Target: UniProt Q91YU8 (peptide sequence: LLQEKFPNMSR, peptide start residue: 213)
- log2 fold change: -0.197

Target: UniProt Q91YT8 (peptide sequence: ILNGLASER, peptide start residue: 755)
- log2 fold change: -0.139

Target: UniProt Q91WF7 (peptide sequence: FVQLGQSQHKQDR, peptide start residue: 821)
- log2 fold change: 0.557

Target: UniProt Q91WU2 (peptide sequence: GFEELLHK, peptide start residue: 2)
- log2 fold change: 0.389

Target: UniProt Q91X78 (peptide sequence: ISEIEDAAFLAR, peptide start residue: 244)
- log2 fold change: -0.227

Target: UniProt Q91VT4 (peptide sequence: VNVVAPGFIRTDMTR, peptide start residue: 172)
- log2 fold change: 0.455
